From patent US20210047411A1 (BIOND BIOLOGICS, published 2021)
Results are given in words; binding and its absence hold for the method and conditions named. Some results given as binding are weak or reduced against the parent protein; the word gives no strength.

The chains behind the UniProt entries cited, without tags or fusion partners. Residues count along the entry.
UniProt P10747, residues 19-144: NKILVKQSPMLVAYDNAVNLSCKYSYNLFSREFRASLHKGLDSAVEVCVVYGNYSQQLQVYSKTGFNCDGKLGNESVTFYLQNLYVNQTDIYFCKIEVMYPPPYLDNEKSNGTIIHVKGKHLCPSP

How the values were obtained:
[1] = target: sCD28 in plasma of cancer patients (human) (UniProt P10747); assay: about 1.5 µg antibody on magnetic beads mixed with plasma; remaining sCD28 by ELISA
[2] = target: sCD28 shed from activated human immune cells (human) (UniProt P10747); assay: sandwich ELISA on supernatants of PHA-stimulated T cells and SEB-stimulated PBMCs; antibody 1 as detection antibody
[3] = target: sCD28 in plasma of cancer patients (human) (UniProt P10747); assay: antibody on tosyl-activated magnetic beads mixed with cancer patient plasma; remaining sCD28 by ELISA
[4] = target: sCD28 in plasma of cancer patients (human) (UniProt P10747); assay: sandwich ELISA on 20 melanoma patient samples; antibody #1 for detection
[5] = target: sCD28 shed from activated human immune cells (human) (UniProt P10747); assay: sandwich ELISA on supernatants of PHA-stimulated T cells and SEB-stimulated PBMCs; antibody 2 as capture antibody
[6] = target: sCD28 in plasma of cancer patients (human) (UniProt P10747); assay: sandwich ELISA on 20 melanoma patient samples; antibody #3 for capture

B1: Antibody #1 (antibody, mouse IgG1, kappa, V domains shown)
VH: QIQLVQSGPELKKPGETVKISCKASGYTLTNYGMNWVKQAPGKGLKWMGWINTYTGKPTYVDDFKGRFAFSLETSASTAYLQINNLKNEDTATYFCARGDANQQFAYWGQGTLVTVSA
VL: DIKMTQSPSSMYASLGERVTITCKASQDINSYLSWFQQKPGKSPKTLIYRANRLVDGVPSRFSGSGSGQDYSLTISSLEYDDMGIYYCLQYDEFPPTFGAGTKLELKR
In the case of B1, the binding [1] is reported as “binds”, the binding [2] is reported as “binds” and the binding [3] is reported as “binds”. For the same binder, the binding [4] was “binds”.

B2: Antibody #2 (antibody, mouse IgG2b, kappa, V domains shown)
VH: QVQLQQSGAELARPGASVKLSCKASGYTFTSYWMQWIKKRPGQGLEWIGAIYPGDGDTRYTQKFKGKATLTADKSSTTAYMQLSSLASEDSAVYFCARNYRYSSFGYWGQGTLVTVSA
VL: DIVMTQSPSSLTVTAGEKVTLSCKSSQSLLNSGNQKNYLTWYQQKPGQPPQLLIYWASTRESGVPDRFTGSGSGTDFTLTISSVQAEDLAVYYCQSDYSYPLTFGAGTKLELKR
B2 was tested, and the binding [5] was “binds” and the binding [3] was “binds”.

B3: Antibody #3 (antibody, mouse IgG1, kappa, V domains shown)
VH: EVQLQQFGAELVKPGASVKISCKASGYTFTDYNMDWVKQSHGKSLEWIGDINPNYDSTAYNQKFMGKATLTVDKSSNTAYMELRSLTSEDTAVYYCARSSPYYDSNHFDYWGQGTSLTVSS
VL: QIVLTQSPAIMSASPGEKVTMTCSARSSINYMHWFQQKPGTSPKRWIYDTSKLASGVPARFSGSGSGTSYSLTISNMEAEDAATYYCHQRNSYPFTFGSGTKLEIKR
B3 was tested, and the binding [6] was “binds”.
